Earlier results in patent publication US20210137853A1, “METHODS OF TREATING EPILEPTIC PATIENTS WITH FENFLURAMINE” (Zogenix International Limited, priority 2019, published 2021).

Conditions: Table 4; compound i.p. in mice; cited from earlier work

Compound | Time to peak (Time to Peak Activity)
CN1CCN(C2=Nc3ccccc3Oc3ccc(Cl)cc32)CC1 [Loxapine] | 0.5
CN(C)CCCN1c2ccccc2CCc2ccc(Cl)cc21 [clomipramine] | 11
NC(=O)N1c2ccccc2C=Cc2ccccc21 [Carbamazepine] | 0.25
Clc1ccc2c(c1)N=C(N1CCNCC1)c1ccccc1N2 [N-desmethyl-clozapine, N-desmethylclozapine] | 11.0
CC(C)NCC(O)COc1cccc2[nH]ccc12 (centres unmarked) [Pindolol] | 1
CN(C)CCC=C1c2ccccc2COc2ccccc21 [doxepin] | 00.25
CN(C)CCCN1c2ccccc2Sc2ccc(Cl)cc21 [Chlorpromazine] | 00.5
CN1CCN2c3ccccc3Cc3ccccc3C2C1 (centres unmarked) [mianserin] | 11.0
OCCN1CCN(CCCN2c3ccccc3Sc3ccc(Cl)cc32)CC1 [perphenazine] | 1.0
CN1CC2c3ccccc3Oc3ccc(Cl)cc3C2C1 (centres unmarked) [asenapine] | 11.0
O=c1[nH]c2ccccc2n1C1CCN(CCCC(c2ccc(F)cc2)c2ccc(F)cc2)CC1 [Pimozide] | 0.5
